In PMC12446771:
These are yes or no findings as the source states them, for the method shown. Binding seen in cells or lysates may run through a third protein. Some results given as binding are weak or reduced against the parent protein; the word gives no strength.

Amino acid sequences for entries named in this document (tags omitted).
UniProt O95622: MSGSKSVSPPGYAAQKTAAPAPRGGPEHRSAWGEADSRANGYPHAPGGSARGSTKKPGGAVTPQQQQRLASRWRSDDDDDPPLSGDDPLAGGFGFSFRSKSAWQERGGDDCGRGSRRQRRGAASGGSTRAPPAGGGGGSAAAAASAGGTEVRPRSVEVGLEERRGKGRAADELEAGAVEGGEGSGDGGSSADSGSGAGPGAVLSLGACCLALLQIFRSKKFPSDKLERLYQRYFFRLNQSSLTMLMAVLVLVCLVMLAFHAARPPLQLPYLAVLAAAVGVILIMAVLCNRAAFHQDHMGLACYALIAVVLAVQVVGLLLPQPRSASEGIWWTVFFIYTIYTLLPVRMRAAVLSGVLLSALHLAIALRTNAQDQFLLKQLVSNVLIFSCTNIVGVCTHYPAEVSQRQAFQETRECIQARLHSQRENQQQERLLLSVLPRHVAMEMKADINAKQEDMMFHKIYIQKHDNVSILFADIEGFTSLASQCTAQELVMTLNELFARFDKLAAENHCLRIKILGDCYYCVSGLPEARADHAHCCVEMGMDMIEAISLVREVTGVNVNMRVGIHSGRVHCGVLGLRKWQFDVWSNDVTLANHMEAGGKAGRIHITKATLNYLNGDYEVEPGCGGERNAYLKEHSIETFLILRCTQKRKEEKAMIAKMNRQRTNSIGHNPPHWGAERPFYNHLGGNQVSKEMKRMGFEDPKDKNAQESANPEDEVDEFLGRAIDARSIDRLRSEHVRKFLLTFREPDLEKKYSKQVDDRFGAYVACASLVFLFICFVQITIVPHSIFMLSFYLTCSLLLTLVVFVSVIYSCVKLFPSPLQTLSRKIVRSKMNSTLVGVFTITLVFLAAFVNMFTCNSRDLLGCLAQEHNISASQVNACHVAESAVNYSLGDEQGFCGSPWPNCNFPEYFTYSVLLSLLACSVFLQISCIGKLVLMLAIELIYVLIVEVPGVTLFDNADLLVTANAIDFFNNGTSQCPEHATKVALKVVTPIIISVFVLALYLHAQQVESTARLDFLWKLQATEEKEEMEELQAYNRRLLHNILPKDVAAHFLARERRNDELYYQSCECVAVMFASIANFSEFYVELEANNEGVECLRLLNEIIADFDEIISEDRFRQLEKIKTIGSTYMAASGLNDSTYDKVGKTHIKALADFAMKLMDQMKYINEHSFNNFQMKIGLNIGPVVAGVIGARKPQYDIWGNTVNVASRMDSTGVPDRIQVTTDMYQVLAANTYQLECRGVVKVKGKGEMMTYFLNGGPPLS
UniProt P63095: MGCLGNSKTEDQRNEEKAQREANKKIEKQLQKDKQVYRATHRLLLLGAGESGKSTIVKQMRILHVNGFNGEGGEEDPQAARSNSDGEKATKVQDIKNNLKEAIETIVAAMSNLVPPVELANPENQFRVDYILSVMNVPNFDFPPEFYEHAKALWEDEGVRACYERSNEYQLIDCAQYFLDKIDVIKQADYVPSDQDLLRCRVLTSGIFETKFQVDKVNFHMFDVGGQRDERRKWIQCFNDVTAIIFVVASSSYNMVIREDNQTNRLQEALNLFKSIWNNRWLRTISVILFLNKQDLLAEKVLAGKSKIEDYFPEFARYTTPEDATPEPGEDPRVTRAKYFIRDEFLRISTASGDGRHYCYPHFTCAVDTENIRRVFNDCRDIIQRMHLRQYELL

Target: AC5-miniTurbo-FLAG fusion protein (human adenylyl cyclase 5) (human) (UniProt O95622)
Experiment: co-IP; pull-down of AC5-mT-FLAG from neonatal rat cardiomyocytes after isoproterenol (2 min, 10 nM), lysis in 0.5% C12E10, Western blot

For Gαs (from UniProt P63095 1-394), the binding was “binds”.
